No constants are given. Whether binding was seen depends on the method and setting. Binding seen in cells or lysates may run through a third protein. Some entries that bind do so weakly or less than the wild type.
Molecular target: USP28 (Ubiquitin Specific Peptidase 28) (human (endogenous in HCT116)) (UniProt Q96RU2)
Assay: co-IP

By UniProt entry, the sequences of proteins in these tests, tags left out.
UniProt Q96RU2: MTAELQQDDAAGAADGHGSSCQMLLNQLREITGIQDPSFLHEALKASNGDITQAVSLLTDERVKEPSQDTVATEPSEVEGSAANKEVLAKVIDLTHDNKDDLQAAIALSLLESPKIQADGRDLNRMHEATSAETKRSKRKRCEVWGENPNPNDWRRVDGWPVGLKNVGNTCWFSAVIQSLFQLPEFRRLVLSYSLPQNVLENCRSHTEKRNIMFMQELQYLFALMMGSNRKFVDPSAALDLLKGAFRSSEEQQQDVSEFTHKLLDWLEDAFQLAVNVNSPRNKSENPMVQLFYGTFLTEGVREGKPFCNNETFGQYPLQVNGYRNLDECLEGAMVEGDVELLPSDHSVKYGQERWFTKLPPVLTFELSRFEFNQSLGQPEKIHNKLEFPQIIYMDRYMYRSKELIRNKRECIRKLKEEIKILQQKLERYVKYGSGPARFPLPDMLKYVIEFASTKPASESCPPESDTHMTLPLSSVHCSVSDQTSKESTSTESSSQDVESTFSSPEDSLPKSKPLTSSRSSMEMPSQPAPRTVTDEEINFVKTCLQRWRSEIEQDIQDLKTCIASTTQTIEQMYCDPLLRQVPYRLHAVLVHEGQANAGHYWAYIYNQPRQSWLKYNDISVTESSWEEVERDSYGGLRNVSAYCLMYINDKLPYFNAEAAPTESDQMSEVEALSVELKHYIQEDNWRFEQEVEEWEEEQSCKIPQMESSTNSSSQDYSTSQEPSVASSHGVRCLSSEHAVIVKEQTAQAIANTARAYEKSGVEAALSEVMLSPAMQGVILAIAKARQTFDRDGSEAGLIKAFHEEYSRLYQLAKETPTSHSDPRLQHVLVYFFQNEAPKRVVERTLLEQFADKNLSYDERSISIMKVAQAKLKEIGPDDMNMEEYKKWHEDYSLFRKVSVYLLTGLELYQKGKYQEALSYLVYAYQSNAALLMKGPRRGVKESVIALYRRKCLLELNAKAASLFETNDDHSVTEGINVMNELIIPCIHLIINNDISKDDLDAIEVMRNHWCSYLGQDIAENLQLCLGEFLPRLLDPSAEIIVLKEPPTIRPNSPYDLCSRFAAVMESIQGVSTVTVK
UniProt Q14980: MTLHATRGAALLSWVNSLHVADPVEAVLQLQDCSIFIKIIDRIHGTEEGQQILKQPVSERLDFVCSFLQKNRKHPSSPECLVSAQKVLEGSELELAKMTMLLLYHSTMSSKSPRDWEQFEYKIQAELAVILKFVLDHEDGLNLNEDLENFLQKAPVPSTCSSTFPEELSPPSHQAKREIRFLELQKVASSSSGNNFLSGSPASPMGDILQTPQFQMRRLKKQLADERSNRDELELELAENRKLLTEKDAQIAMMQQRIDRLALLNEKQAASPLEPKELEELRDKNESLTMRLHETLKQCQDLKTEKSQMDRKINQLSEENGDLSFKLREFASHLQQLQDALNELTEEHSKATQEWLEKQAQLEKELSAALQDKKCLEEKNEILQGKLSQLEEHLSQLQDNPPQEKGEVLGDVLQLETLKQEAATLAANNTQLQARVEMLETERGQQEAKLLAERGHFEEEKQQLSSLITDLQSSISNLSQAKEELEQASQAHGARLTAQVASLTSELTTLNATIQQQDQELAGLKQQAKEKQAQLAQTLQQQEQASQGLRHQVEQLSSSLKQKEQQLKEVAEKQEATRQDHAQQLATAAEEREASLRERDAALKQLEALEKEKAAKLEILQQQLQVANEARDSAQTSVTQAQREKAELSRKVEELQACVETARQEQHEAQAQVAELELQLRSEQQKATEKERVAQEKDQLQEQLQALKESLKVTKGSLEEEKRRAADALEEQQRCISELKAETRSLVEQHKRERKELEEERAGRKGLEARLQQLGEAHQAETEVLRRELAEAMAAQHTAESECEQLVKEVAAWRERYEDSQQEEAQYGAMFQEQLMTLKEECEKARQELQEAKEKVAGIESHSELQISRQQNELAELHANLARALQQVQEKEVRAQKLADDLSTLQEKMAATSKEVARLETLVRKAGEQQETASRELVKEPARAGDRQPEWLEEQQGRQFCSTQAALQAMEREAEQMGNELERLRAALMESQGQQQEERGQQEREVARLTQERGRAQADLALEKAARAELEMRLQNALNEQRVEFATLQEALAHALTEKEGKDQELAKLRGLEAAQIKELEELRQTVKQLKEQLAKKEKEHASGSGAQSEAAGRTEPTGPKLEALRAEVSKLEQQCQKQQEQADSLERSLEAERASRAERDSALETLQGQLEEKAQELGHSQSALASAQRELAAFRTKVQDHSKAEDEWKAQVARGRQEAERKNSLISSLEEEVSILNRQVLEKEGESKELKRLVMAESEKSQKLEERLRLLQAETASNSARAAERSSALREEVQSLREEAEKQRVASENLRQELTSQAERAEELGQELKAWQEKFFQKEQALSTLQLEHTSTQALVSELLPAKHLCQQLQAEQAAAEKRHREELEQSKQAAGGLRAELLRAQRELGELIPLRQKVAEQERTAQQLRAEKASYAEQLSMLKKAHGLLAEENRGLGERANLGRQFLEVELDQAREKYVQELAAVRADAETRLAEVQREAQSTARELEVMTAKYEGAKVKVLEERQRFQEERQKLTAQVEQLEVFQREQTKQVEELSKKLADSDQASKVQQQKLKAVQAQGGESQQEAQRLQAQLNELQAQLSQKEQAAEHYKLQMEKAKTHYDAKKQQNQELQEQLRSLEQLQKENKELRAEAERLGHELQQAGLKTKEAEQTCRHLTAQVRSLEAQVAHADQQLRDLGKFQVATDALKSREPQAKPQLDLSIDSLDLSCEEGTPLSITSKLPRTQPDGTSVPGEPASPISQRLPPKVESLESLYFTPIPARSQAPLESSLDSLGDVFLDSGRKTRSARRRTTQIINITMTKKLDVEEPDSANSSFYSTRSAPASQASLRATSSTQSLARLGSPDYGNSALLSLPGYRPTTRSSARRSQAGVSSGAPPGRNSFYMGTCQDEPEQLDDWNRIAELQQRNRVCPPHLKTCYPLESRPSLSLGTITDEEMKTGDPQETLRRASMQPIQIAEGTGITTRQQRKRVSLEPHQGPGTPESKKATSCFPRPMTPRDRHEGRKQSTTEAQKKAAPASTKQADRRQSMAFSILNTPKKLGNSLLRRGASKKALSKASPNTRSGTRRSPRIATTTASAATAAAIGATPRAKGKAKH

## Nuclear mitotic apparatus protein 1 (NuMA1) (from UniProt Q14980 1-2115)
  binding: binds
